Test results published in patent US20160185850A1 (ESBATECH AN ALCON BIOMEDICAL RESEARCH UNIT, published 2016).
No constants are given. Whether binding was seen depends on the method and setting. Some results given as binding are weak or reduced against the parent protein; the word gives no strength.

Amino acid sequences for entries named in this document (tags omitted). Residues count along the entry.
UniProt P01375, residues 77-233: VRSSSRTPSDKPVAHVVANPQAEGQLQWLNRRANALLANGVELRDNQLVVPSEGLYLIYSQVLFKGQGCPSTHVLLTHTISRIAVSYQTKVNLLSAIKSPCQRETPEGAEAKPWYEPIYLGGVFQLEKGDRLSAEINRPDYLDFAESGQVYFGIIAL

Target: recombinant human TNFα (human, UniProt P01375 77-233)
Experiment: ELISA on recombinant human TNFα (data not shown)

B1: TB-A Fab antibody (Fab, V domains shown)
VH: QVQLVQSGAEVKKPGASVKVSCTASGYTFTHYGMNWVRQAPGKGLEWMGWINTYTGEPTYADKFKDRFTFSLETSASTVYMELTSLTSDDTAVYYCARERGDAMDYWGQGTLVTVSS
VL: DIVMTQSPSSLSASVGDRVTLTCTASQSVSNDVVWYQQRPGKAPKLLIYSAFNRYTGVPSRFSGRGYGTDFTLTISSLQPEDVAVYYCQQDYNSPRTFGQGTKLEVKR
binding: binds
